# Measured data: PubChem BioAssay AID686938 (Drosophila RNAi Screening Center, 2013)
# Aim: 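Fly genes required for calcium entry once internal stores are emptied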 (primary screen)
# Cell system: Drosophila S2R+ cells
# Reagents: long dsRNA against Drosophila genes, about 0.25 µg dsRNA per well, roughly 10,000 cells
# Time to read-out: 5 days of knock-down before the calcium assay
# Conditions: thapsigargin (SERCA pump blocker) to empty calcium stores; entry signal taken 4 min after adding it
# Detection: 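Duplicate raw fluo-4 intensities per well from a plate reader, at rest and four minutes after thapsigargin emptied calcium stores; entry-to-rest ratio filled for only some wells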
# Reading the numbers: calcium entry signal: higher = stronger calcium signal after store depletion; entry to resting ratio: higher = more calcium entry relative to resting level; resting calcium signal: higher = higher resting calcium signal
# Rule for the call: 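Hit if the duplicate-averaged plate z-score for entry over resting signal is under −3; wells with weak total dye signal (Fmax z < −2) or more than 5 off-targets removed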
# Calls: active = strongly reduced calcium entry; inactive = no strong reduction
# The deposit covers about 23,000 reagents; shown is a random part of those that have a named target and a result. Of all reagents, 75 (0.33%) got an active call. 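Raw plate signals without normalisation; calls rest on plate z-scores that were not deposited; ratio present for only 364 wells.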 A number with no mark means an inactive call. Reagent sequences are not shown. Not stated in the record: the dose of the treatment.
Gene,DRSC id,"calcium entry signal, replicate 1 (fluorescence units)","calcium entry signal, replicate 2 (fluorescence units)",entry to resting ratio,"resting calcium signal, replicate 1 (fluorescence units)","resting calcium signal, replicate 2 (fluorescence units)"
Non1 (Novel nucleolar protein 1),DRSC05954,2.09e7,1.76e7,,1.04e7,1.01e7
CG14107,DRSC10110,2.47e7,4.50e7,,1.22e7,1.75e7
CG15185,DRSC12565,4.22e7,3.62e7,,2.03e7,1.69e7
Mbs (Myosin binding subunit),DRSC09414,4.24e7,3.77e7,,1.76e7,1.82e7
Mbs (Myosin binding subunit),DRSC10525,4.31e7,4.78e7,,2.01e7,3.28e7
Mbs (Myosin binding subunit),DRSC10553,4.57e7,2.81e7,,1.99e7,1.44e7
nmd (no mitochondrial derivative),DRSC02856,3.64e7,,,1.88e7,
CG6052,DRSC10574,4.29e7,5.10e7,,2.14e7,2.06e7
Syx5 (Syntaxin 5),DRSC03432,2.60e7,,,1.94e7,
Jabba,DRSC06521,4.06e7,3.45e7,,1.90e7,1.64e7
CCT5 (Chaperonin containing TCP1 subunit 5),DRSC07357,1.94e7,2.30e7,,1.24e7,1.37e7
Ir94a (Ionotropic receptor 94a),DRSC13538,4.34e7,2.65e7,,2.33e7,1.25e7
m (miniature),DRSC20181,3.30e7,3.62e7,,1.71e7,1.72e7
CG13707,DRSC08316,2.93e7,3.96e7,,1.45e7,1.69e7
Sys1 (Sys1 golgi trafficking protein),DRSC14372,4.00e7,3.14e7,,2.21e7,1.56e7
Git (G protein-coupled receptor kinase interacting ArfGAP),DRSC06620,4.32e7,4.42e7,,2.91e7,1.81e7
CG4631,DRSC02766,5.01e7,3.05e7,,2.12e7,1.52e7
CG4631,DRSC22194,3.59e7,4.84e7,,1.64e7,2.77e7
"Sr-CI (Scavenger receptor class C, type I)",DRSC00790,4.48e7,3.15e7,,2.45e7,1.63e7
RpS3A (Ribosomal protein S3A),DRSC17168,1.21e7,1.01e7,1.3,9.62e6,7.79e6
CG11600,DRSC14332,3.21e7,3.58e7,,1.64e7,1.78e7
Hsl (Hormone-sensitive lipase),DRSC06028,4.35e7,3.56e7,,1.92e7,1.82e7
CG12716,DRSC19493,4.71e7,3.67e7,,1.93e7,1.47e7
Trx2 (Thioredoxin 2),DRSC03622,2.66e7,4.84e7,,1.42e7,2.08e7
CG17928,DRSC02644,3.68e7,2.38e7,,1.71e7,1.26e7
Ank2 (Ankyrin 2),DRSC08894,4.64e7,4.38e7,,2.48e7,2.10e7
Ank2 (Ankyrin 2),DRSC09666,3.29e7,4.07e7,,1.47e7,1.88e7
Ank2 (Ankyrin 2),DRSC10338,3.24e7,4.21e7,,1.58e7,1.95e7
Ank2 (Ankyrin 2),DRSC11278,3.24e7,4.60e7,,1.55e7,2.16e7
Ank2 (Ankyrin 2),DRSC22922,3.61e7,3.66e7,,1.82e7,1.68e7
CG15465,DRSC18048,3.43e7,3.55e7,,1.68e7,1.64e7
"betaNACtes2 (Nascent-associated complex beta-subunit-like, testis 2)",DRSC19792,2.91e7,3.64e7,,1.59e7,1.73e7
Cdc27 (Cell division cycle 27),DRSC11112,3.67e7,2.64e7,,3.30e7,1.69e7
Srpk79D (Serine-arginine protein kinase at 79D),DRSC11668,3.05e7,4.24e7,,1.52e7,2.78e7
Srpk79D (Serine-arginine protein kinase at 79D),DRSC11856,2.77e7,4.94e7,,1.47e7,2.13e7
Nep2 (Neprilysin 2),DRSC12126,3.29e7,4.20e7,,1.49e7,2.52e7
Nep2 (Neprilysin 2),DRSC21398,4.15e7,3.61e7,,2.26e7,1.65e7
CG4970,DRSC02796,4.05e7,4.94e7,,1.98e7,2.08e7
Fili (Fish-lips),DRSC03907,2.56e7,4.42e7,,1.25e7,1.78e7
Fili (Fish-lips),DRSC04132,4.65e7,4.73e7,,2.20e7,1.99e7
Fili (Fish-lips),DRSC04445,4.55e7,4.92e7,,2.23e7,2.24e7
Alp7 (Alkaline phosphatase 7),DRSC04355,4.18e7,5.63e7,,2.18e7,2.29e7
CG33306,DRSC01899,4.33e7,,,2.09e7,
wgn (wengen),DRSC19998,3.72e7,3.77e7,,1.70e7,1.55e7
Cyp6a16Psi (retired record),DRSC03307,2.39e7,2.38e7,,1.27e7,1.20e7
CG8679,DRSC03109,5.50e7,4.56e7,,2.43e7,2.19e7
l(2)41Ab (lethal (2) 41Ab),DRSC21007,5.17e7,4.01e7,,2.28e7,1.85e7
shn (schnurri),DRSC05266,5.22e7,5.12e7,,2.54e7,2.29e7
shn (schnurri),DRSC07681,2.38e7,2.59e7,,1.07e7,1.22e7
Ubc4 (Ubiquitin conjugating enzyme 4),DRSC11312,5.18e7,4.05e7,,3.28e7,1.64e7
Mlh1,DRSC07473,4.17e7,4.25e7,,1.90e7,2.06e7
Girdin,DRSC08292,2.97e7,3.51e7,,1.56e7,1.57e7
Cdk7 (Cyclin-dependent kinase 7),DRSC18451,3.42e7,3.51e7,,1.57e7,1.50e7
Cdk7 (Cyclin-dependent kinase 7),DRSC23327,4.23e7,2.73e7,,2.44e7,1.33e7
wtrw (water witch),DRSC14241,2.41e7,2.40e7,,1.04e7,1.25e7
wtrw (water witch),DRSC15278,4.48e7,5.90e7,,2.09e7,2.55e7
bun (bunched),DRSC01253,4.06e7,4.37e7,,1.94e7,1.94e7
bun (bunched),DRSC01255,3.89e7,4.37e7,,1.87e7,1.93e7
bun (bunched),DRSC03500,3.35e7,,,2.32e7,
bun (bunched),DRSC23041,4.53e7,3.05e7,,2.30e7,1.48e7

5 entries already listed, arranged by “calcium entry signal, replicate 1 (fluorescence units)”, descending.
Gene,DRSC id,"calcium entry signal, replicate 1 (fluorescence units)","calcium entry signal, replicate 2 (fluorescence units)",entry to resting ratio,"resting calcium signal, replicate 1 (fluorescence units)","resting calcium signal, replicate 2 (fluorescence units)"
Mbs (Myosin binding subunit),DRSC10553,4.57e7,2.81e7,,1.99e7,1.44e7
Mbs (Myosin binding subunit),DRSC10525,4.31e7,4.78e7,,2.01e7,3.28e7
Mbs (Myosin binding subunit),DRSC09414,4.24e7,3.77e7,,1.76e7,1.82e7
CG15185,DRSC12565,4.22e7,3.62e7,,2.03e7,1.69e7
CG14107,DRSC10110,2.47e7,4.50e7,,1.22e7,1.75e7
